Reference: the supplement of paper PMC8326762, “A Small Molecule Inhibitor of Pex3–Pex19 Interaction Disrupts Glycosome Biogenesis and Causes Lethality in Trypanosoma brucei” (Frontiers in Cell and Developmental Biology, 2021)
Structures can show the parent of a compound that is named as a salt. Some of the results follow. Single values of this set are uncertain.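 Yeast growth was read as optical density at 600 nm. The two-hybrid strains grew without histidine, so growth needed the Pex3–Pex19 binding; a compound counted as trypanosome-selective if it cut growth of the trypanosome-pair strain by more than 65% and the human-pair strain by less than 65%.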

How the values were obtained:
[1] = tested on: Saccharomyces cerevisiae HF7c pdr5Δ; assay: general growth inhibition of yeast HF7c pdr5Δ in -Leu -Trp medium, relative to DMSO; higher = stronger general growth inhibition; conditions: 100 µM; 24 h
[2] = tested on: human PEX3-PEX19 interaction (yeast two-hybrid); assay: growth inhibition of yeast two-hybrid strain reporting HsPex3-HsPex19 interaction, relative to DMSO; higher = stronger inhibition of human Pex3-Pex19 interaction / growth; conditions: 100 µM; 24 h; 3-aminotriazole 10 mM
[3] = tested on: T. brucei Pex3-Pex19 interaction (yeast two-hybrid); assay: growth inhibition of yeast two-hybrid strain reporting TbPex3-TbPex19 interaction, relative to DMSO; higher = stronger inhibition of T. brucei Pex3-Pex19 interaction / growth; conditions: 100 µM; 24 h

SMILES | general growth inhibition [1] | growth inhibition [2] | growth inhibition [3]
Cc1cccc(C2CN(C)CCc3c2cc(O)c(O)c3Cl)c1 (stereo unspecified) | 51.2% | 56.6% | 69.2%
OC[C@H]1NC[C@@H](O)[C@@H]1O [1,4-Dideoxy-1,4-imino-D-arabinitol] | 36.1% | 43.4% | 60.5%
O=C(CCc1ccncc1)NNC(=O)N1Cc2ccccc2Oc2ccc(Cl)cc21 | 51.1% | 38.2% | 66.3%
O=C(c1ccc(F)cc1)C1CCN(CCn2c(=O)[nH]c3ccccc3c2=O)CC1 [Ketanserin tartrate] | 17.1% | 8.66% | 40.3%
CNCCCN1c2ccccc2CCc2ccccc21 [Desipramine hydrochloride] | 41.9% | 34.5% | 69.6%
Cn1cc(C(F)(F)F)nc1-c1ccc(OCC(O)CNCCOc2ccc(O)c(C(N)=O)c2)cc1 (stereo unspecified) | 18.5% | 27.1% | 53.4%
COc1ccccc1OCCNCC(O)COc1cccc2[nH]c3ccccc3c12 (stereo unspecified) [Carvedilol] | 22.7% | 41.5% | 50%
CCCCS(=N)(=O)CCC(N)C(=O)O [L-Buthionine-sulfoximine] | 29.5% | 30.7% | 49%
Cn1c(=O)c2c(ncn2C)n(C)c1=O [Caffeine] | 30.1% | 36.6% | 57.5%
O=C(O)c1cc(=O)cc(C(=O)O)[nH]1 [Chelidamic acid] | 40.7% | 43% | 57.1%
Fc1ccc(CN(C2=NCCN2)c2c(Cl)cccc2Cl)cc1 [IMID-4F hydrochloride] | 21.7% | 35.7% | 52.6%
CCCCCC(O)CCCC(=O)O (stereo unspecified) [5-hydroxydecanoic acid sodium] | 35.1% | 26.4% | 58.3%

Single entries from the results shown:
Fc1ccc(CN(C2=NCCN2)c2c(Cl)cccc2Cl)cc1 [IMID-4F hydrochloride] – growth inhibition [3]: 52.6%
CNCCCN1c2ccccc2CCc2ccccc21 [Desipramine hydrochloride] – growth inhibition [3]: 69.6%
